Measurements: article PMC7819943, “Rice protein-binding microarrays: a tool to detect cis-acting elements near promoter regions in rice”
The other results are listed elsewhere or left out.

Chains of the proteins cited; added tags and fusions are not shown.
UniProt Q0JBA9, entry or part of it: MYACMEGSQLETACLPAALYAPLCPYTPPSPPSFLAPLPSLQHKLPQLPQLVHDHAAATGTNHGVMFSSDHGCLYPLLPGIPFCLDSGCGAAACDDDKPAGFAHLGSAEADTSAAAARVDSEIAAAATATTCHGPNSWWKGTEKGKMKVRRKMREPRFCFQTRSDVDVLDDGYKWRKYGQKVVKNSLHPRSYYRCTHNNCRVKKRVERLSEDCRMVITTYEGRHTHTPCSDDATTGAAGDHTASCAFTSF

Molecular target: OsWRKY34 (Oryza sativa, UniProt Q0JBA9 1-250)
Experiment: protein-binding microarray (RPBM); PBS, 2% BSA, 51.3 ng/ul salmon testes DNA, 50 uM zinc acetate, 200 nM TF, 25 C, 1 h; high values mean tight binding
Settings: protein: recombinant; tags: N-terminal polyhistidine and DsRed monomer fusion (pET32a); label: CyDye5-dUTP incorporated in the synthesized complementary strand; 3' TTTTT single-stranded linker to array surface; dsDNA, one strand shown
How it was run: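 Transcription factors, each fused N-terminally to a polyhistidine tag and DsRed, were expressed in E. coli BL21-CodonPlus and purified on Ni–NTA. A custom Agilent array was made double-stranded by primer extension with Cy5-dUTP and blocked with 2% BSA. It was incubated with 200 nM protein in PBS, 2% BSA, salmon testes DNA and 50 µM zinc acetate at 25 °C for 1 h, then washed. The binding signal is per-feature fluorescence intensity (arbitrary units) read on an Axon 4000B scanner.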

Sequence | binding signal
CTTGGCTGATTCCTTTTCTTCTCGATCGATCCCGTTATTCCGGAGTCACCTAGTGCAG | 8540 fluorescence intensity (a.u.)
ATTTTCATTTTTTTTGTTATTTTTAGTGGTGCAAAAGCCACGGAGTCACCTAGTGCAG | 9060 fluorescence intensity (a.u.)
TATTACTCTATCTCAAATCCATGCTACAAATCATACGCATCGGAGTCACCTAGTGCAG | 8550 fluorescence intensity (a.u.)
CCACAATGATCAGCCCACATGTGCCTTGCACAGTATTGTACGGAGTCACCTAGTGCAG | 8130 fluorescence intensity (a.u.)
TAACAGCTCTCTTCTGCAATCTGCATTGCCCTCTCTGTTCCGGAGTCACCTAGTGCAG | 12200 fluorescence intensity (a.u.)
GCTTCATCCGATCGCCCGCGCCAAGAACTCGATCCTCATGCGGAGTCACCTAGTGCAG | 8200 fluorescence intensity (a.u.)
TTTGGTCAAACTTAAAAAAGTTTGACTACAACTAAATTCACGGAGTCACCTAGTGCAG | 8740 fluorescence intensity (a.u.)
CTCCGCCTCTCCGCCTCTCCGCCTAACCCTAACCCTAGCCCGGAGTCACCTAGTGCAG | 8540 fluorescence intensity (a.u.)
CTGCAACTCTTGGCACCAGGAACCTTCGCTGTCTCAATCACGGAGTCACCTAGTGCAG | 9650 fluorescence intensity (a.u.)
AGCTTCTTGTTACGCGTTCTCTGCTGATTGGCTTATCAACCGGAGTCACCTAGTGCAG | 9450 fluorescence intensity (a.u.)
ATATTGTCACGTCCCCTTTTTCGTGTCTTCTATTTTGCTCCGGAGTCACCTAGTGCAG | 9280 fluorescence intensity (a.u.)
CTCTCCACCTGCTGCATTACTGCACCTCCTCTACCTCCATCGGAGTCACCTAGTGCAG | 11900 fluorescence intensity (a.u.)
TCAGTGGTTGTAGTGGTAGTACCATTATGGTAGAGGATGTCGGAGTCACCTAGTGCAG | 8250 fluorescence intensity (a.u.)
TGGGACGCCGTACACTCCCTCAGCAGCCGCCTCGCATTCTCGGAGTCACCTAGTGCAG | 10800 fluorescence intensity (a.u.)
TCTTGGTAACTACCCTGCTTGACTACTGAATTTTTCTTGCCGGAGTCACCTAGTGCAG | 8320 fluorescence intensity (a.u.)
ATACACCGCCCGTTTCGCCAGTGTCTTTTCTCTTTTTACTCGGAGTCACCTAGTGCAG | 8160 fluorescence intensity (a.u.)
TCTCACCGGCCTCGCAGCTGCTTCTACTTTACCGTCGTCACGGAGTCACCTAGTGCAG | 8270 fluorescence intensity (a.u.)
CACCACCTCAGTCTATTACTATCTCTGCTCAGTTTCTTTTCGGAGTCACCTAGTGCAG | 9830 fluorescence intensity (a.u.)
TTGACCCATCCTGATTAATTGTTTAGCTAAGTTTTTTTTACGGAGTCACCTAGTGCAG | 8830 fluorescence intensity (a.u.)
TATCCTTTTCCGGCTACGTGTTGATTTTGCTCGTTTGTTCCGGAGTCACCTAGTGCAG | 10700 fluorescence intensity (a.u.)
CCTTACAGTGTATTGGACCTATTGCATCTTTTAGCTCGTCCGGAGTCACCTAGTGCAG | 8080 fluorescence intensity (a.u.)

Sequence | binding signal
CCACACCACCGTCCCCTCGCTGCCTGCCTCCACCTCACCTCGGAGTCACCTAGTGCAG | 8950 fluorescence intensity (a.u.)
TTTGGTTAAAGTCAAACTACCATAAGTTTGACTAACTCTGCGGAGTCACCTAGTGCAG | 12700 fluorescence intensity (a.u.)
CAGGTAATGGATTGATTGCAGGGTTGGGATTTGACCAGGTCGGAGTCACCTAGTGCAG | 11300 fluorescence intensity (a.u.)
GTCAACCACCTCAGACATCACCAACGCTATAAAATGCTATCGGAGTCACCTAGTGCAG | 10700 fluorescence intensity (a.u.)
TCTTTTTTCTGCCCAACATGCTTTCTTTTCTCTGATCTAGCGGAGTCACCTAGTGCAG | 10900 fluorescence intensity (a.u.)
TATATATCTCGCACCAGGCTGTTCATATTTGCTCCTTACCCGGAGTCACCTAGTGCAG | 8540 fluorescence intensity (a.u.)
ACTAGTCTCTTCTTACCGGAATCCCCACACCTTCTCGCCACGGAGTCACCTAGTGCAG | 8980 fluorescence intensity (a.u.)
GACACACTTTTACCCTTACACAACCCGTTTGTTCCCTGCACGGAGTCACCTAGTGCAG | 12200 fluorescence intensity (a.u.)
ATATATTTTTGTCTACTCAATCCTTTTTTCCCTTCTCTCACGGAGTCACCTAGTGCAG | 8740 fluorescence intensity (a.u.)
CGGCGGTTACTGATGCGCTTATTTGATTTGATCACAACACCGGAGTCACCTAGTGCAG | 8610 fluorescence intensity (a.u.)
GGCCTTTACACGGGCCCAAATGTATCTCTCTTGGTTGTAGCGGAGTCACCTAGTGCAG | 8300 fluorescence intensity (a.u.)
TGGTGAACCCTCCGGGGTTTGGGTCTTTTTTTGCTTCGGTCGGAGTCACCTAGTGCAG | 8790 fluorescence intensity (a.u.)
AAAGGGCAAGAGGTGTATGGTTTCGACCCTGAGATCCTTGCGGAGTCACCTAGTGCAG | 8210 fluorescence intensity (a.u.)
ATCCTCTGTTTTACACTCGTATTTCTATCAGAATCCTATGCGGAGTCACCTAGTGCAG | 8440 fluorescence intensity (a.u.)
TGTGTTCTTTGCTTATCGTTGGAAGCTAATTACTCTCACACGGAGTCACCTAGTGCAG | 10900 fluorescence intensity (a.u.)
TCAACTCACCGACCGCCGCCCTTTCTCTGTCCCCAGCTCTCGGAGTCACCTAGTGCAG | 9590 fluorescence intensity (a.u.)
TCAACTTTTTTACCACTCAATTCGTATACCCTCTATAATACGGAGTCACCTAGTGCAG | 10300 fluorescence intensity (a.u.)
CTCTACCCAGCTCCACCTACTTTCAAGTTGTTAATTTTGACGGAGTCACCTAGTGCAG | 10700 fluorescence intensity (a.u.)
TCCTCCACCATGCGGGCCCCACACATATCCGGTTTCTTCTCGGAGTCACCTAGTGCAG | 10600 fluorescence intensity (a.u.)
GAGGAGGGGAGAAACGGGAGGTTGGTGGTGGTGGTGGAGGCGGAGTCACCTAGTGCAG | 15200 fluorescence intensity (a.u.)
GCGGGGATTTGGAAATTTGGATGGATTTGGGAATTTGGGTCGGAGTCACCTAGTGCAG | 8730 fluorescence intensity (a.u.)

Pulled one by one from the list above:
Sequence | binding signal
GCGGGGATTTGGAAATTTGGATGGATTTGGGAATTTGGGTCGGAGTCACCTAGTGCAG | 8730 fluorescence intensity (a.u.)
TCTTTTTTCTGCCCAACATGCTTTCTTTTCTCTGATCTAGCGGAGTCACCTAGTGCAG | 10900 fluorescence intensity (a.u.)

Further entries.

Sequence | binding signal
AAACCCATGTACACCCTGCACTCGATCGCAAGCCACAACACGGAGTCACCTAGTGCAG | 9610 fluorescence intensity (a.u.)
CTCCTCCCGCGCGCTCCGCCGCTTCTCCGACGACGTCCTCCGGAGTCACCTAGTGCAG | 8140 fluorescence intensity (a.u.)
TGCCTAACCGTTTCTGAAAAGACTTGTTCCTGCCCATATTCGGAGTCACCTAGTGCAG | 10300 fluorescence intensity (a.u.)
GAGCATTGTTTTATTCTGCAGCCCCATCGTTAGGCATATTCGGAGTCACCTAGTGCAG | 10300 fluorescence intensity (a.u.)
CTCATCCTTTCGCTTATATTTATACCTATCAGCTAAAAATCGGAGTCACCTAGTGCAG | 8060 fluorescence intensity (a.u.)
ACTTTTGCAGAACTTGATCTTCATTTTTCTTGTCGTATTTCGGAGTCACCTAGTGCAG | 12300 fluorescence intensity (a.u.)
CTCCAAGTTGTGCTGATAAGTGGGTCTGGATATTTGCCATCGGAGTCACCTAGTGCAG | 8380 fluorescence intensity (a.u.)
TTTGTCTACTTAATTTGTTCTTCTTCGCGACTTTGACCGTCGGAGTCACCTAGTGCAG | 10700 fluorescence intensity (a.u.)
TTTGCTATTATACCGATCGTTTCCTTATTTACAATATTATCGGAGTCACCTAGTGCAG | 10400 fluorescence intensity (a.u.)
CCAACGTTTGACTGTCTGTCTTATATGAAATTTTTTTATACGGAGTCACCTAGTGCAG | 10900 fluorescence intensity (a.u.)
CCCGCCGCATTCGCTCACCGGTGAGCATCCTAATCCATCCCGGAGTCACCTAGTGCAG | 10200 fluorescence intensity (a.u.)
CAGTTGTTTCGCGTGTTCTTTGTGGAGTGGGCAGCTTCCCCGGAGTCACCTAGTGCAG | 8640 fluorescence intensity (a.u.)
AATTCCACCACCTGTAGCAGCAGCGATCGCGTGTGTTCTTCGGAGTCACCTAGTGCAG | 8920 fluorescence intensity (a.u.)
ACACAGGCACGGAGGTGGCACACTCCTCTCGCCTCGCTTTCGGAGTCACCTAGTGCAG | 8250 fluorescence intensity (a.u.)
CATGCGCCGCCTACCCACCTCAGCATCCGGCGTTGTCTCCCGGAGTCACCTAGTGCAG | 8810 fluorescence intensity (a.u.)
TTTAATTCATTTTCTAGATTCTATAACCACATCTTTTTAGCGGAGTCACCTAGTGCAG | 9640 fluorescence intensity (a.u.)
ACTGACATTCCCAACATCATCGCCACATGCAAACGGCTAGCGGAGTCACCTAGTGCAG | 8640 fluorescence intensity (a.u.)
GCCGTTTCCATTCTACCCAAACACCACGCTGGATCGCCTCCGGAGTCACCTAGTGCAG | 12500 fluorescence intensity (a.u.)
TTGACTTTTTCTCACATGTTTGACCATTCGTCTTATTCAACGGAGTCACCTAGTGCAG | 15400 fluorescence intensity (a.u.)
CACTCTCTCCTCGAACGCCTCACCCCGCCCACGCCTGCACCGGAGTCACCTAGTGCAG | 8450 fluorescence intensity (a.u.)
GCCGCCCATCGATCTGCAGCTTCGCCCGCGCCGCCGGCGACGGAGTCACCTAGTGCAG | 10300 fluorescence intensity (a.u.)

Sequence | binding signal
AGCCAATCCGCCCAACCAGATGCCCTACCCGGCGGCCTCTCGGAGTCACCTAGTGCAG | 10500 fluorescence intensity (a.u.)
TGTTTTTTGGCATTGATTTTAATCTTTTCTTGGGGTCACACGGAGTCACCTAGTGCAG | 8300 fluorescence intensity (a.u.)
ACCAGCACAACAAATTCGATCTCTTGAAGCTAGCTTTCTCCGGAGTCACCTAGTGCAG | 8230 fluorescence intensity (a.u.)
GATGGATGTTTTTCTTTTTTTCTCAGATTTTTTCTAATTTCGGAGTCACCTAGTGCAG | 9140 fluorescence intensity (a.u.)
AAGCCGCCGTCGCGTATCTCATCTCGTGTCATCGAGTGGTCGGAGTCACCTAGTGCAG | 10300 fluorescence intensity (a.u.)
TTCTGTTCATGCCATAAACCATGTACCGCATATACTTTAGCGGAGTCACCTAGTGCAG | 10200 fluorescence intensity (a.u.)
CTTTGTCATGCACGGCTTCACTTACTCTGCAATATCATGTCGGAGTCACCTAGTGCAG | 9650 fluorescence intensity (a.u.)
CAACCACCAACTCCACACGCTGTTCATGTCACGACGGTTTCGGAGTCACCTAGTGCAG | 11600 fluorescence intensity (a.u.)
CCTGCTGGAGGTGGAGGTGGAGGTGGAGGTGGAGGGTATACGGAGTCACCTAGTGCAG | 11700 fluorescence intensity (a.u.)
TTAAGTTTTTGCTTGCACTGTTTAACCACTCGTTTCATTCCGGAGTCACCTAGTGCAG | 12400 fluorescence intensity (a.u.)
CCGTTTCGTCTGTCCCTGGACACATGTCGCGTCCTGATTGCGGAGTCACCTAGTGCAG | 8030 fluorescence intensity (a.u.)
CCCCACCCACCGCCAGCAAAATTTTTAATCCTGAGTAAATCGGAGTCACCTAGTGCAG | 8360 fluorescence intensity (a.u.)
GAGTTAAGCAGATCTCCCAGGCCTCGTGTTTTCTGTCAACCGGAGTCACCTAGTGCAG | 9780 fluorescence intensity (a.u.)
CCCAACCAAAGTCAACGCCAAAAGCTGCGATTTTTTTTTCCGGAGTCACCTAGTGCAG | 10400 fluorescence intensity (a.u.)
TCCTACCTACAGCTATAGCTGCGTGCCGGGGTTGGGGCTGCGGAGTCACCTAGTGCAG | 8750 fluorescence intensity (a.u.)
ACACAGTAACACGTAAGGCCTCCTTGTATGGGCCTCAATCCGGAGTCACCTAGTGCAG | 9100 fluorescence intensity (a.u.)
GAGGGTTAGAATTAGAAGTTGTTCTTTCAGAAGGTGGGAACGGAGTCACCTAGTGCAG | 8180 fluorescence intensity (a.u.)
GCCTTACCAATTTTTGTCAATGTCAAATTTGGCAACTTTTCGGAGTCACCTAGTGCAG | 8050 fluorescence intensity (a.u.)
ACGTGGCGCAATTTTTTCCCTTTTGTTTGTTTTCATTCGGCGGAGTCACCTAGTGCAG | 8440 fluorescence intensity (a.u.)
GACACGCTGATCCCGTTCGTCACCATAAGCTTGTCTCATACGGAGTCACCTAGTGCAG | 10700 fluorescence intensity (a.u.)
CCCATCAAACCATGGGCCCCACACGGCAGCAGCCCATCTCCGGAGTCACCTAGTGCAG | 8150 fluorescence intensity (a.u.)

Laid out differently: entries from further up.
Sequence	binding signal
CTTTGTCATGCACGGCTTCACTTACTCTGCAATATCATGTCGGAGTCACCTAGTGCAG	9650 fluorescence intensity (a.u.)
CAACCACCAACTCCACACGCTGTTCATGTCACGACGGTTTCGGAGTCACCTAGTGCAG	11600 fluorescence intensity (a.u.)
CCTGCTGGAGGTGGAGGTGGAGGTGGAGGTGGAGGGTATACGGAGTCACCTAGTGCAG	11700 fluorescence intensity (a.u.)
